PubChem BioAssay AID1671195, Yale University | 2021
This is an unselected part of about 22,000 reagents. About 1,510 of all reagents (6.9%) were called active. 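Active includes knockdowns raising or lowering LDL uptake; positive z-scores mean more uptake, negative mean less.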 The numbers tell different reagents against one gene apart.

Screen: 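Knockdowns that increase or decrease uptake of fluorescent LDL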 (primary screen)
Cells: human Huh7 hepatoma cells
Reagent: siRNA pool against human genes, 18 nM
Duration: about 2 to 2.5 days of knockdown, then 8 h LDL uptake
Challenge: DiI-labelled LDL at 30 µg/ml for 8 h, in lipoprotein-deficient serum medium
Measurement: 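Fluorescent LDL signal imaged in cells, scaled to the plate median, robust z-score for each replicate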
Reading the numbers: robust z-score: higher = more LDL uptake after knockdown
Rule for the call: 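a gene counts as active if at least two replicate z-scores exceed ±2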

| target gene | reagent | robust z-score, replicate 1 | robust z-score, replicate 2 | robust z-score, replicate 3 | Outcome |
| --- | --- | --- | --- | --- | --- |
| LPXN (leupaxin) | 1 | -0.927 | -0.68 | -0.983 | inactive |
| NTHL1 (nth like DNA glycosylase 1) | 1 | 1.16 | 1.83 | 0.561 | inactive |
| BACH1 (BTB domain and CNC homolog 1) | 1 | 1.48 | 1.91 | 3.04 | active |
| HMG20B (high mobility group 20B) | 1 | -0.483 | 0.429 | 0.377 | inactive |
| SELENOV (selenoprotein V) | 1 | -0.789 | -1.07 | -0.964 | inactive |
| VSIG1 (V-set and immunoglobulin domain containing 1) | 1 | -0.809 | -1.13 | -0.527 | inactive |
| RPL23AP76 (ribosomal protein L23a pseudogene 76) | 1 | -0.839 | -1.48 | -1.53 | inactive |
| HIGD2A (HIG1 hypoxia inducible domain family member 2A) | 1 | 1.72 | 1.93 | 1.55 | inactive |
| LOC440850 (retired record) | 1 | 0.0894 | 0.158 | -0.00993 | inactive |
| SLC25A46 | 1 | 0.924 | 1.24 | 0.523 | inactive |
| LOC400846 (retired record) | 1 | 2.29 | 2.17 | 1.27 | active |
| RPS19BP1 (ribosomal protein S19 binding protein 1) | 1 | -0.0836 | -0.317 | -0.355 | inactive |
| LOC441929 (retired record) | 1 | -0.574 | -0.191 | -0.179 | inactive |
| SAT2 (spermidine/spermine N1-acetyltransferase family member 2) | 1 | 0.69 | -2.26 | 1.59 | inactive |
| PFN1 (profilin 1) | 1 | 2.13 | 2.86 | 1.79 | active |
| LOC93429 | 1 | -1.14 | -0.661 | -1.15 | inactive |
| LOC391295 (retired record) | 1 | 1.55 | 1.81 | 1.67 | inactive |
| CRACR2A (calcium release activated channel regulator 2A) | 1 | 2.35 | 1.72 | 2.04 | active |
| CRACR2A (calcium release activated channel regulator 2A) | 2 | 0.0136 | 0.51 | -0.055 | inactive |
| LZTFL1 (leucine zipper transcription factor like 1) | 1 | 2.62 | 2.36 | 1.76 | active |
| FMR1 (fragile X messenger ribonucleoprotein 1) | 1 | 0.465 | 0.982 | 0.403 | inactive |
| CDY1 (chromodomain Y-linked 1) | 1 | 2.9 | 0.417 | 1.93 | inactive |
| LOC440075 (retired record) | 1 | -0.373 | -0.132 | -0.476 | inactive |
| KCNH8 (potassium voltage-gated channel subfamily H member 8) | 1 | -0.723 | -1.11 | -0.585 | inactive |
| SMOC1 (SPARC related modular calcium binding 1) | 1 | 0.079 | 0.112 | -0.328 | inactive |
| NHLRC4 (NHL repeat containing 4) | 1 | 0.252 | 0.179 | 0.618 | inactive |
| RPL21P131 (ribosomal protein L21 pseudogene 131) | 1 | -0.627 | -0.313 | -0.376 | inactive |
| ALOX15B (arachidonate 15-lipoxygenase type B) | 1 | -0.546 | -0.571 | -0.14 | inactive |
| MED14 (mediator complex subunit 14) | 1 | 0.3 | -2.62 | -0.189 | inactive |
| MSTO1 (misato mitochondrial distribution and morphology regulator 1) | 1 | 0.375 | 0.172 | 1.4 | inactive |
| CFAP20DC (CFAP20 domain containing) | 1 | -0.529 | -0.736 | -1.36 | inactive |
| RYBP (RING1 and YY1 binding protein) | 1 | 0.57 | 0.0939 | 0.693 | inactive |
| FKBP10 (FKBP prolyl isomerase 10) | 1 | 0.0382 | 2.02 | -0.132 | inactive |
| MYOC (myocilin) | 1 | -1.04 | -1.2 | -1.33 | inactive |
| BHLHE22-AS1 (BHLHE22 antisense RNA 1) | 1 | 1.38 | 1.31 | 1.04 | inactive |
| MYO1D (myosin ID) | 1 | 0.112 | 1.72 | -0.221 | inactive |
| BATF (basic leucine zipper ATF-like transcription factor) | 1 | 0.0579 | -0.195 | -0.137 | inactive |
| ITPKB (inositol-trisphosphate 3-kinase B) | 1 | 1.24 | 1.37 | 1.46 | inactive |
| CHCHD2 (coiled-coil-helix-coiled-coil-helix domain containing 2) | 1 | 0.595 | -0.207 | 0.256 | inactive |
| PLXNA2 (plexin A2) | 1 | -0.22 | -0.133 | -0.197 | inactive |
| SLC22A8 | 1 | 0.0563 | 0.221 | 0.812 | inactive |
| NOX4 (NADPH oxidase 4) | 1 | 0.032 | 0.397 | -0.173 | inactive |
| HMGB1 (high mobility group box 1) | 1 | 6.56 | 4.9 | 7.53 | active |
| IDI2 (isopentenyl-diphosphate delta isomerase 2) | 1 | -0.142 | 0.673 | -0.354 | inactive |
| INPP5K (inositol polyphosphate-5-phosphatase K) | 1 | -1.89 | -1.86 | -1.95 | inactive |
| MSRA (methionine sulfoxide reductase A) | 1 | 0.112 | 0.873 | 0.487 | inactive |
| RGS10 (regulator of G protein signaling 10) | 1 | -0.0817 | -0.555 | -0.0569 | inactive |
| SLC25A21 | 1 | 1.31 | -1.16 | -2.92 | inactive |
| TRAFD1 (TRAF-type zinc finger domain containing 1) | 1 | -0.518 | -0.114 | -1.53 | inactive |
| CST7 (cystatin F) | 1 | 0.0577 | -0.191 | -0.404 | inactive |
| FAM41C (family with sequence similarity 41 member C) | 1 | -1.29 | -1.23 | -1.11 | inactive |
| FLJ46284 | 1 | 1.09 | 0.926 | 1.21 | inactive |
| LINC02243 (long independently transcribed non-coding RNA 2243) | 1 | -2.02 | -2.1 | -2.27 | active |
| CDHR3 (cadherin related family member 3) | 1 | 0.204 | 0.136 | -0.184 | inactive |
| CBX3 (chromobox 3) | 1 | -0.138 | 0.226 | -0.512 | inactive |
| ILK (integrin linked kinase) | 1 | -0.747 | -0.719 | -0.635 | inactive |
| ABI3 (ABI family member 3) | 1 | 0.753 | 0.619 | 0.699 | inactive |
| LOC389863 (retired record) | 1 | -0.349 | -0.128 | -0.45 | inactive |
| LOC439930 (retired record) | 1 | 0.0648 | 0.128 | 0.0681 | inactive |
| MRPS35 (mitochondrial ribosomal protein S35) | 1 | -0.68 | -0.878 | -0.975 | inactive |
| OR5L1 (olfactory receptor family 5 subfamily L member 1) | 1 | -0.96 | -1.11 | -1.05 | inactive |
| SLC26A2 | 1 | -1.06 | -1.29 | -0.945 | inactive |
| ZNF471 (zinc finger protein 471) | 1 | 2.03 | 2.69 | 1.9 | active |
| RTCA (RNA 3'-terminal phosphate cyclase) | 1 | 0.617 | 0.397 | 1.07 | inactive |
| LOC401061 (retired record) | 1 | -0.25 | -0.02 | -0.185 | inactive |
| LOC388593 (retired record) | 1 | 0.0372 | 0.506 | 0.191 | inactive |
| FABP3 (fatty acid binding protein 3) | 1 | 4.48 | 2.33 | -1.64 | active |
| ANKRD45 (ankyrin repeat domain 45) | 1 | -0.605 | -0.569 | -0.67 | inactive |
| PCDHB15 (protocadherin beta 15) | 1 | -0.00803 | 0.209 | 0.279 | inactive |
| ANKRD13B (ankyrin repeat domain 13B) | 1 | -1.01 | -1.08 | -1.22 | inactive |
| AVPR1B (arginine vasopressin receptor 1B) | 1 | 2.22 | 0.0385 | 1.72 | inactive |
| CFAP61 (cilia and flagella associated protein 61) | 1 | -0.441 | 0.0365 | 1.27 | inactive |
| MEP1B (meprin A subunit beta) | 1 | -0.869 | -0.675 | -0.479 | inactive |
| PSG10P (pregnancy specific beta-1-glycoprotein 10, pseudogene) | 1 | -1.23 | -1.63 | -1.44 | inactive |
| KRTAP19-3 (keratin associated protein 19-3) | 1 | -0.552 | -0.748 | -0.551 | inactive |
| UBE2D1 (ubiquitin conjugating enzyme E2 D1) | 1 | -1.31 | -1.18 | -1.31 | inactive |
| LOC100288496 | 1 | 0.949 | 0.229 | 0.251 | inactive |
| ZNF197 (zinc finger protein 197) | 1 | -0.369 | -0.0882 | 0.00783 | inactive |
| SAP30 (Sin3A associated protein 30) | 1 | -0.729 | -0.615 | -0.384 | inactive |
| CHCHD5 (coiled-coil-helix-coiled-coil-helix domain containing 5) | 1 | 0.181 | -0.398 | -0.319 | inactive |
| LINC01114 (long intergenic non-protein coding RNA 1114) | 1 | 1.31 | 1.49 | 0.628 | inactive |
| FANCM (FA complementation group M) | 1 | 0.629 | 1.07 | 0.791 | inactive |
| THAP5 (THAP domain containing 5) | 1 | 0.517 | 1.72 | 0.279 | inactive |
| RPL26L1 (ribosomal protein L26 like 1) | 1 | -0.733 | -1.95 | -1.71 | inactive |
| LOC442129 (retired record) | 1 | -0.176 | 0.292 | -0.161 | inactive |
| TSNAX (translin associated factor X) | 1 | -0.698 | -1.14 | -0.768 | inactive |
| ATG4A (autophagy related 4A cysteine peptidase) | 1 | 0.398 | 0.788 | 0.294 | inactive |
